# According to paper PMC9753400, “Conformational alteration in glycan induces phospholipase Cβ1 activation and angiogenesis” (Journal of Biomedical Science, 2022):
# No constants are given. Whether binding was seen depends on the method and setting. For some of these results: In cells and extracts the contact can be indirect. Some results given as binding are weak or reduced against the parent protein; the word gives no strength.
# B1: recombinant human full-length translin-associated factor X (TRAX) (protein, UniProt Q99598 1-290)
# chain: MSNKEGSGGFRKRKHDNFPHNQRREGKDVNSSSPVMLAFKSFQQELDARHDKYERLVKLSRDITVESKRTIFLLHRITSAPDMEDILTESEIKLDGVRQKIFQVAQELSGEDMHQFHRAITTGLQEYVEAVSFQHFIKTRSLISMDEINKQLIFTTEDNGKENKTPSSDAQDKQFGTWRLRVTPVDYLLGVADLTGELMRMCINSVGNGDIDTPFEVSQFLRQVYDGFSFIGNTGPYEVSKKLYTLKQSLAKVENACYALKVRGSEIPKHMLADVFSVKTEMIDQEEGIS
# B2: recombinant C-terminal domain of PLCβ1 (PLCβ1-C), amino acids 890 to 1161 (domain or fragment, human, UniProt Q9NQ66 890-1161, looked up)
# chain: APAKTEDLIQSVLTEVEAQTIEELKQQKSFVKLQKKHYKEMKDLVKRHHKKTTDLIKEHTTKYNEIQNDYLRRRAALEKSAKKDSKKKSEPSSPDHGSSTIEQDLAALDAEMTQKLIDLKDKQQQQLLNLRQEQYYSEKYQKREHIKLLIQKLTDVAEECQNNQLKKLKEICEKEKKELKKKMDKKRQEKITEAKSKDKSQMEEEKTEMIRSYIQEVVQYIKRLEEAQSKRQEKLVEKHKEIRQQILDEKPKLQVELEQEYQDKFKRLPLEI
# notes: phospholipase C β1 (PLCβ1), human, C-terminal domain, residues 890-1161, cDNA from HUVECs, in pET-21d; Removal of the tag is not mentioned; also called recombinant C-terminus of PLCβ1; source: E. coli BL21 (DE3) pLys, purified (HisTrap FF, DEAE-Sepharose, SP-Sepharose)
# B3: endogenous phospholipase C β1 (PLCβ1) in HUVECs (protein, UniProt Q9NQ66 1-1216)
# chain: MAGAQPGVHALQLKPVCVSDSLKKGTKFVKWDDDSTIVTPIILRTDPQGFFFYWTDQNKETELLDLSLVKDARCGRHAKAPKDPKLRELLDVGNIGRLEQRMITVVYGPDLVNISHLNLVAFQEEVAKEWTNEVFSLATNLLAQNMSRDAFLEKAYTKLKLQVTPEGRIPLKNIYRLFSADRKRVETALEACSLPSSRNDSIPQEDFTPEVYRVFLNNLCPRPEIDNIFSEFGAKSKPYLTVDQMMDFINLKQRDPRLNEILYPPLKQEQVQVLIEKYEPNNSLARKGQISVDGFMRYLSGEENGVVSPEKLDLNEDMSQPLSHYFINSSHNTYLTAGQLAGNSSVEMYRQVLLSGCRCVELDCWKGRTAEEEPVITHGFTMTTEISFKEVIEAIAECAFKTSPFPILLSFENHVDSPKQQAKMAEYCRLIFGDALLMEPLEKYPLESGVPLPSPMDLMYKILVKNKKKSHKSSEGSGKKKLSEQASNTYSDSSSMFEPSSPGAGEADTESDDDDDDDDCKKSSMDEGTAGSEAMATEEMSNLVNYIQPVKFESFEISKKRNKSFEMSSFVETKGLEQLTKSPVEFVEYNKMQLSRIYPKGTRVDSSNYMPQLFWNAGCQMVALNFQTMDLAMQINMGMYEYNGKSGYRLKPEFMRRPDKHFDPFTEGIVDGIVANTLSVKIISGQFLSDKKVGTYVEVDMFGLPVDTRRKAFKTKTSQGNAVNPVWEEEPIVFKKVVLPTLACLRIAVYEEGGKFIGHRILPVQAIRPGYHYICLRNERNQPLTLPAVFVYIEVKDYVPDTYADVIEALSNPIRYVNLMEQRAKQLAALTLEDEEEVKKEADPGETPSEAPSEARTTPAENGVNHTTTLTPKPPSQALHSQPAPGSVKAPAKTEDLIQSVLTEVEAQTIEELKQQKSFVKLQKKHYKEMKDLVKRHHKKTTDLIKEHTTKYNEIQNDYLRRRAALEKSAKKDSKKKSEPSSPDHGSSTIEQDLAALDAEMTQKLIDLKDKQQQQLLNLRQEQYYSEKYQKREHIKLLIQKLTDVAEECQNNQLKKLKEICEKEKKELKKKMDKKRQEKITEAKSKDKSQMEEEKTEMIRSYIQEVVQYIKRLEEAQSKRQEKLVEKHKEIRQQILDEKPKLQVELEQEYQDKFKRLPLEILEFVQEAMKGKISEDSNHGSAPLSLSSDPGKVNHKTPSSEELGGDIPGKEFDTPL
# Assays:
# [1] = molecular target: T1, recombinant C-terminal domain of PLCβ1 (PLCβ1-C), amino acids 890 to 1161 (human) (UniProt Q9NQ66); experiment: ELISA; PLCβ1-C immobilised on microtiter plate, TRAX added at rising concentrations, detected by anti-TRAX antibody and AP-conjugated secondary antibody; with or without 20 μM GHCer; both purified
# T1 sequence: B2 chain
# [2] = molecular target: T2, recombinant human full-length translin-associated factor X (TRAX) (human) (UniProt Q99598); experiment: ELISA; TRAX immobilised on microtiter plate, PLCβ1-C added at rising concentrations, detected by anti-PLCβ1 antibody and AP-conjugated secondary antibody; with or without 20 μM GHCer; both purified
# T2 sequence: B1 chain
# [3] = molecular target: T3, endogenous TRAX in HUVECs (human (endogenous in HUVECs)) (UniProt Q99598); experiment: FRET or BRET; confocal FRET in fixed, permeabilised HUVECs; PLCβ1 stained with mouse antibody and Alexa488 anti-mouse IgG (donor), TRAX with rabbit antibody and Alexa555 anti-rabbit IgG (acceptor); cells treated with PBS, 20 μM SSEA3Cer for 3 h, or EVs (100 μg), EVs + mAb VK9, EVs + isotype antibody for 16 h
# T3 sequence: B1 chain
# [4] = molecular target: T3, endogenous TRAX in HUVECs (human (endogenous in HUVECs)); experiment: condition: only HUVECs incubated with 20 μM GHCer for 3 h; FRET or BRET; as a4, but HUVECs incubated with 20 μM GHCer for 3 h before fixation
binder,measurement,setting,value
B1,binding,[1],binds
B2,binding,[2],binds
B3,binding,[3],binds
same,binding,[4],no binding
